The record followed here is paper PMC10195082.

Sequences of proteins named here, by UniProt entry; tags and fusion partners are left off. Residues count along the entry.
UniProt Q9UBX2, residues 154-424: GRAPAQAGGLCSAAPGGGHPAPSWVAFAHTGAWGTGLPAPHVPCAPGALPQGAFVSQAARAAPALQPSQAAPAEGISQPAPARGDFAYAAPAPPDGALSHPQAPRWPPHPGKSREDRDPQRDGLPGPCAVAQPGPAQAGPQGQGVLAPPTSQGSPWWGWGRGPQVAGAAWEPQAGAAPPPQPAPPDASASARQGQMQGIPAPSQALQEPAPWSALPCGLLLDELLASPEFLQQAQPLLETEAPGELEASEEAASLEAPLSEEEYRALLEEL
UniProt O00571: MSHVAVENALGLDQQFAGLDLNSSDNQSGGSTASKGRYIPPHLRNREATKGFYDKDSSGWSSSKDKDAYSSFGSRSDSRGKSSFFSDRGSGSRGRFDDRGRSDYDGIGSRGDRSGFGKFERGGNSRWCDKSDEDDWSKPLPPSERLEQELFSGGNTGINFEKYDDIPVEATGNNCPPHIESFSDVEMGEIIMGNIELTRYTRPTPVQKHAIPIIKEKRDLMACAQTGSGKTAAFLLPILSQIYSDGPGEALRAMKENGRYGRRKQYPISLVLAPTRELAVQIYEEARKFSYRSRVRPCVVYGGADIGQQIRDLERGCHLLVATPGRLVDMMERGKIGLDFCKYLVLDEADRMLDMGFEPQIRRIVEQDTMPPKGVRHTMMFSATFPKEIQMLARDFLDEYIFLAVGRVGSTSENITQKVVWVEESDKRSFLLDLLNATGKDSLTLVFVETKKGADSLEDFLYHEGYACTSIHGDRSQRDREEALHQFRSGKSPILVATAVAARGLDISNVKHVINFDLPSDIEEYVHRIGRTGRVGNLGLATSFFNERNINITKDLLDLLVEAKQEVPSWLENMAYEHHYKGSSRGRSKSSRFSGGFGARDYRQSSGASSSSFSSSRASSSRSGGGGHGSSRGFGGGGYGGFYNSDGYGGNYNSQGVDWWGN
UniProt P42224: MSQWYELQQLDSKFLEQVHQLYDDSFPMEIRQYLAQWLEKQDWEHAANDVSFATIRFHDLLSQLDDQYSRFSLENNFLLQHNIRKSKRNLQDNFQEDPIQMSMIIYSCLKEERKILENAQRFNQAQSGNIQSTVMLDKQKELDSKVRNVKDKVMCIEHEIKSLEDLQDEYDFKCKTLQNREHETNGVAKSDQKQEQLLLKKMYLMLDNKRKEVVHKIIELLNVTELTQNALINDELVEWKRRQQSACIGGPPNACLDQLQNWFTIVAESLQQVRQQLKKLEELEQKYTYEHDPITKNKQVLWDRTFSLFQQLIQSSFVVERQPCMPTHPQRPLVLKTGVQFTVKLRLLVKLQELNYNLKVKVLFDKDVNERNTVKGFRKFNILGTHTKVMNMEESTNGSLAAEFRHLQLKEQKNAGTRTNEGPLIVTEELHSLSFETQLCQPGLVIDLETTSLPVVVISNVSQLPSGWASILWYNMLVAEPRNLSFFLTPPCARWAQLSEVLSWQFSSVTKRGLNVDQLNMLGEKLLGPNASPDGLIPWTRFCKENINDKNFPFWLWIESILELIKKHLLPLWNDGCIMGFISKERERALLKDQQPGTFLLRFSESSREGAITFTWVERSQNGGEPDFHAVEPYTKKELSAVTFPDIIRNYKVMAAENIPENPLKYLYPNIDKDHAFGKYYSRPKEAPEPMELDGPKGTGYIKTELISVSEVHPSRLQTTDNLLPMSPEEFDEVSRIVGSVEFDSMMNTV

These are yes or no findings as the source states them, for the method shown. In cells and extracts the contact can be indirect. Here binding means that the protein was enriched with, or labelled near, the bait; the list need not be complete.

The assay has as its target 3xFLAG-NLS-DUX4-CTD (DUX4 aa154-424) (human) (UniProt Q9UBX2). The assay is described as follows: affinity purification with mass spectrometry; anti-FLAG [M2] cross-linked to beads, extract of MB135 cells with doxycycline-induced FLAG-tagged bait, ± IFNγ; elution with FLAG peptide; LC-MS (Orbitrap Eclipse); two experiments.
For the substance “DDX3X (endogenous) (from UniProt O00571 1-662)”, the binding entry is given as “binds”. As for “PRKDC (endogenous) (from UniProt P78527 1-4128)”, the binding entry is on record as “binds”. The value for “STAT1 (endogenous, total, MB135 cells) (from UniProt P42224 1-750)” was “binds”.
